According to article PMC4275582:
These are yes or no findings as the source states them, for the method shown. Binding seen in cells or lysates may run through a third protein. A yes stands for co-enrichment or nearness to the bait. Other partners may have been found. Tags and fused reporters may be left off the sequences shown.

By UniProt entry, the sequences of proteins in these tests, tags left out.
UniProt Q9Y265: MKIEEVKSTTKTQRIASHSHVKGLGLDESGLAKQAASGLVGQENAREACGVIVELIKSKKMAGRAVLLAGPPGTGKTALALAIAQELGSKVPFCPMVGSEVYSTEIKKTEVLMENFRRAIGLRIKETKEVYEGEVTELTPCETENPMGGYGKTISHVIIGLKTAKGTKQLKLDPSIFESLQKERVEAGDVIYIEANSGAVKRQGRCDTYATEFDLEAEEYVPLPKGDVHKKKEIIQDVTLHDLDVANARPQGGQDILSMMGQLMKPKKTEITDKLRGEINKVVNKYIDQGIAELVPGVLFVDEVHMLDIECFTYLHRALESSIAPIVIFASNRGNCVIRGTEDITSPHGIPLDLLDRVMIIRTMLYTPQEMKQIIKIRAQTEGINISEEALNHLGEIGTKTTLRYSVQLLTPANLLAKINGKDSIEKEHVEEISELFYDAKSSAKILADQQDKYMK

Target: T1, ITFG1-Myc (human LINKIN) (human) (UniProt Q8TB96)
T1 sequence: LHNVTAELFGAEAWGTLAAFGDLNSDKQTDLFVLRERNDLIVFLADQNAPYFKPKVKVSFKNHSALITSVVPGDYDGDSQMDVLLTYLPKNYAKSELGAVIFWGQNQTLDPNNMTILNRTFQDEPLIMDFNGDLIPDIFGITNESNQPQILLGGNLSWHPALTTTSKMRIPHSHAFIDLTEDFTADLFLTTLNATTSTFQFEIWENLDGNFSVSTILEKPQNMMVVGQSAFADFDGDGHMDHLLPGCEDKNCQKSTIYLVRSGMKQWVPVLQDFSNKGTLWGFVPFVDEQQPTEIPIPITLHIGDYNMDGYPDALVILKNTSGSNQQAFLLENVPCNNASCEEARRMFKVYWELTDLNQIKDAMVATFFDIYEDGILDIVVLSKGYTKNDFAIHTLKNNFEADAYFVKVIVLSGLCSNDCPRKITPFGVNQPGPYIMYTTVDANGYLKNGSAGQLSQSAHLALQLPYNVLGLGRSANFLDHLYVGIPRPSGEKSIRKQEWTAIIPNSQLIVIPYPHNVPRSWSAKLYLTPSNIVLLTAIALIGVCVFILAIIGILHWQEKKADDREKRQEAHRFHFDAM
Assay: affinity purification with mass spectrometry; SILAC; Myc-beads immunoprecipitation from lysate of ITFG1-Myc-transfected HEK 293T cells (light) against non-transfected cells (heavy Arg6, Lys8); lysis buffer 50 mM HEPES pH 7.5, 70 mM KOAc, 5 mM Mg(OAc)2, 0.2% n-dodecyl-β-D-maltoside; 4°C, 1 hr; LC-MS/MS

binding	Substance
binds	β-tubulin (human (endogenous in HEK 293T))
binds	RUVBL1 (from UniProt Q9Y265 1-456)
binds	α-tubulin (human (endogenous in HEK 293T))
